Laboratory results reported in PubChem BioAssay AID602313 (National Center for Advancing Translational Sciences (NCATS), 2012).
The whole screen tested about 390,000 compounds, of which about 760 (0.19%) were called active. The shares of active, inactive and inconclusive entries below differ from those in the screen. Calls come from the whole dose curve; as a rule, active = well fitted inhibition curve with a large enough effect; inconclusive = small, poorly fitted or top-dose-only effect; inactive = flat fitted curve, though single readings scatter. Potencies beside an inconclusive call are fits to weak or partial responses and may not hold up.

assay: qHTS for Inhibitors of Vif-A3F Interactions: qHTS; details: HeLa A3F-eYFP + Vif (tagged APOBEC3F with the HIV-1 protein that degrades it), YFP fluorescence increase; series mostly up to 46.1 µM; activity, negative = active: at the top concentration; note: nearly all actives have a fitted effect of over 65% in size; for activity, negative = active: % of control where 0% means no effect
Outline: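 HeLa cells stably expressing A3F-eYFP plus Vif, plated and incubated overnight at 37 deg C, then exposed to compounds overnight at 37 deg C. Blocked degradation read as raised yellow fluorescence (Ex 488/Em 500-530).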
Potency is the fitted concentration of half-maximal effect.

SMILES | Potency | activity, negative = active
CC(C)C(=O)Nc1ccc(NC(=S)NC(=O)c2cc3ccccc3o2)cc1 | inconclusive: 2.82 µM [inhibitor, single point] | –
Cc1ccccc1Oc1ccc2c(c1)[C@@H]1C[C@H](N(C)C(=O)c3cccnc3)[C@H]([C@H](C)O)C(=O)N1CC2 | – | inactive: -3.95%
CC(Cc1ccccc1)NC(=S)CN1CCCC1=S (configuration not stated) | inconclusive: 31.6 µM [inhibitor, single point] | –
CC(=NC1CCCC1)c1c(C)[nH]n(-c2nc3ccccc3s2)c1=O | inconclusive: 12.6 µM [inhibitor, partial curve] | –
Cn1ncc2c(=S)nc(Cl)[nH]c21 | inconclusive: 6.31 µM [inhibitor, partial curve, poor fit] | –
COc1cccc(C(c2nnnn2CCc2ccccc2)N2CCN(c3ccccc3)CC2)c1OC (configuration not stated) | – | inactive: -1.89%
O=C(Nc1ccc(OC(F)F)c(Cl)c1)C(c1ccccc1)c1ccccc1 | inconclusive: 28.2 µM [inhibitor, single point] | –
C/C(N)=C(/C#N)C(=O)COC(=O)c1cc2c(s1)CCCC2 | inconclusive: 2.24 µM [inhibitor, partial curve, poor fit] | –
Cc1ccc2cc(CN(c3ccccc3)S(=O)(=O)c3ccccc3)c(=O)[nH]c2c1 | inconclusive: 35.5 µM [inhibitor, single point] | –
COc1ccc(NS(=O)(=O)c2cccc(C(=O)NNC(=O)COc3ccccc3)c2)cc1 | inconclusive: 17.8 µM [inhibitor, partial curve, poor fit] | –
O=C(c1ccc(Cl)c(S(=O)(=O)N2CCOCC2)c1)N(Cc1nnc(-c2ccccc2Cl)o1)C1CC1 | inconclusive: 5.62 µM [inhibitor, single point] | –
C(C#CCN1CCOCC1)#CCN1CCOCC1 | inconclusive: 11.2 µM [inhibitor, single point] | –
CCCOc1ccc(-c2nc(SC)[nH]c(=O)c2C#N)cc1OC | – | inactive: -15.6%
CCCC1CCc2c(sc(N)c2C(N)=O)C1 (configuration not stated) | – | inactive: 0.749%
O=c1cc(O)c(-c2ccc(Cl)cc2)c(Cl)[nH]1 | – | inactive: -4.68%
Cc1nn2c(NCc3ccccn3)cc(C(C)C)nc2c1-c1ccccc1 | inconclusive: 2.51 µM [inhibitor, partial curve, poor fit] | –
Cc1ccc(Nc2c(-c3ccc(O)cc3)nc3cccc(C)n23)cc1 | inconclusive: 17.8 µM [inhibitor, partial curve, poor fit] | –
CCOC(=O)Cn1c2ccc(OC)cc2c2nc3ccccc3nc21 | inconclusive: 17.8 µM [inhibitor, single point] | –
CCOc1ccc(CNCc2c(C(=O)O)n(Cc3ccc(C)cc3)c3cc(C)ccc23)cc1 | inconclusive: 35.5 µM [inhibitor, single point] | –
C=CCNCCCOc1ccc(Cl)cc1C(C)(C)C | – | inactive: 2.65%
CC(=O)Nc1ccc(-c2cn3ccsc3n2)cc1 | – | inactive: 0%
C=C(C)CNC(=S)N/N=C(\C)c1cccc(NC(C)=O)c1 | inconclusive: 35.5 µM [inhibitor, single point] | –
O=C(COc1ccc2c3c(c(=O)oc2c1)CCC3)Nc1ccc(CCO)cc1 | – | inactive: 1.39%

In the list so far, 2 contain a thiophene ring, fused or not.
SMILES | Potency | activity, negative = active
C/C(N)=C(/C#N)C(=O)COC(=O)c1cc2c(s1)CCCC2 | inconclusive: 2.24 µM [inhibitor, partial curve, poor fit] | –
CCCC1CCc2c(sc(N)c2C(N)=O)C1 (configuration not stated) | – | inactive: 0.749%

Later entries:

SMILES | Potency | activity, negative = active
Cc1nc(-c2ccccn2)nc(N2CCOCC2)c1Cl | inconclusive: 35.5 µM [inhibitor, single point] | –
CCN(CC)c1ccc(/C=N/OCC(=O)Nc2cccc(C)c2)cc1 | inconclusive: 35.5 µM [inhibitor, single point] | –
COc1ccc(C(=O)N/N=C/c2ccccc2OC(=O)c2ccccc2)cc1 | inconclusive: 20 µM [inhibitor, single point] | –
Cc1sc2nc(C3CC3)nc(N3CCN(C(=O)c4ccc(F)cc4)CC3)c2c1C | – | inactive: 2.33%
COc1cccc2cc(C(=O)OCC(=O)NC3CCCC(C)C3C)c(=O)oc12 (configuration not stated) | inconclusive: 35.5 µM [inhibitor, partial curve, poor fit] | –
C/C(=C\c1ccc2c(c1)OCO2)C(=O)c1c(C)cc(C)[nH]c1=O | – | inactive: 0.22%
N=C1S/C(=C\c2ccc(-c3cccc(Cl)c3)o2)C(=O)N1c1nccs1 | active: 25.1 µM | –
COc1ccc(-c2cc(C(=O)Nc3ccc(S(=O)(=O)Nc4onc(C)c4C)cc3)c3ccccc3n2)cc1OC | – | inactive: 6.4%
Cc1nc2ccc([N+](=O)[O-])cc2c(=O)n1Cc1ccc(Br)cc1 | inconclusive: 15.8 µM [inhibitor, single point] | –
Cc1ccc(S(=O)(=O)N2CCC(C(=O)OCC(=O)N(C)Cc3ccccc3)CC2)cc1C | inconclusive: 3.55 µM [inhibitor, single point] | –
CC(C)C[C@H]1CNC(=S)N1CC1CCCN1C[C@H](Cc1ccccc1)N1C[C@H](Cc2ccc(O)cc2)N(CC2CCCCC2)C1=S (some centres not stated) | – | inactive: -9.92%
Cc1cc(C(C)(C)CC(C)(C)C)ccc1OCCOCC[N+](C)(C)Cc1ccccc1 | – | inactive: 6.02%
O=c1c2ccccc2[nH]c(=S)n1CCN1CCc2ccccc2C1 | inconclusive: 35.5 µM [inhibitor, single point] | –
COc1cccc(NC(=O)C2CCN(c3nn4cc(-c5ccc(F)cc5)nc4s3)CC2)c1 | inconclusive: 11.2 µM [inhibitor, partial curve, poor fit] | –
CCOC(=O)c1cc(-c2ccccc2)n(CC(=O)Nc2ccc(OC)c(OC)c2)c1C | inconclusive: 35.5 µM [inhibitor, single point] | –
O=C(COC(=O)c1ccc(OC(F)F)cc1)Nc1cccc(S(=O)(=O)NC2=NCCC2)c1 | inconclusive: 3.55 µM [inhibitor, partial curve, poor fit] | –
Cc1cc(C)cc(NC(=S)/C(=C(\[O-])c2ccc(Cl)cc2Cl)[n+]2ccccc2)c1 | – | inactive: 1.96%
Cc1ccc(-c2cc(C(F)(F)F)c(C#N)c(SCC(=O)Nc3ccccc3)n2)cc1 | inconclusive: 25.1 µM [inhibitor, single point] | –
O=C1OCC(CO)(CO)N=C1NNc1cc(Cl)ccc1Cl | – | inactive: -1.9%
Cc1cccc(N=C2NC(=O)/C(=C/c3cccn3C)S2)c1C | inconclusive: 7.08 µM [inhibitor, partial curve, poor fit] | –
COc1ccc2nc(NC(=O)c3cccc(-c4cc5ccccc5oc4=O)c3)sc2c1 | inconclusive: 11.2 µM [inhibitor, partial curve, poor fit] | –
C/C(=N\NC(=S)Nc1c(C)cccc1C)c1cc2ccccc2o1 | inconclusive: 3.98 µM [inhibitor, single point] | –
CN(C)CCCN(C(=O)c1cc(Cl)sc1Cl)c1nc2cc3c(cc2s1)OCO3 | inconclusive: 35.5 µM [inhibitor, single point] | –

SMILES | Potency | activity, negative = active
NC(=O)C1CCN(c2cc(Cl)nc(N)n2)CC1 | – | inactive: 1.86%
COc1ccc(N(CC(=O)N2CCN(C)CC2)S(=O)(=O)c2ccccc2)cc1 | inconclusive: 0.562 µM [inhibitor, full curve, poor fit] | –
Cc1ccc(C)c(CSc2nc3ccncc3n2CC(=O)Nc2ccc(N(C)C)cc2)c1 | – | inactive: 7.5%
Cc1nn(C)c(C(=O)N/N=C/c2ccc(C(F)(F)F)cc2)c1[N+](=O)[O-] | inconclusive: 14.1 µM [inhibitor, single point] | –
c1ccc(CN(Cc2ccco2)C(c2ccncc2)c2nnnn2C2CCCC2)cc1 (configuration not stated) | – | inactive: -6.46%
COc1cc(OC)cc(C(=O)Nc2ccc(N(C)C)c3ccccc23)c1 | inconclusive: 12.6 µM [inhibitor, partial curve, poor fit] | –
O=C(O)c1ccccc1Nc1ccc([N+](=O)[O-])c2nonc12 | inconclusive: 11.2 µM [inhibitor, partial curve, poor fit] | –
O=C(NCc1ccco1)c1cccc2c1C(=O)c1ccc(/C=C/c3ccccc3)cc1S2(=O)=O | inconclusive: 28.2 µM [inhibitor, single point] | –
COc1cccc(-c2cnc(NCc3ccccc3Cl)n2C)c1 | – | inactive: -20%
CC(C)(C)Cc1c(-c2ccc(F)cc2)nc2ccc(Br)cn12 | inconclusive: 25.1 µM [inhibitor, single point] | –
CCCCN(C(=O)CC1OC(=O)c2ccccc21)c1c(N)n(CCCC)c(=O)[nH]c1=O (configuration not stated) | inconclusive: 3.98 µM [inhibitor, single point] | –
O=c1c2c3c(sc2n(Cc2cc(=O)n4ccccc4n2)c(=O)n1-c1ccc(Cl)cc1)CCC3 | – | inactive: 3.32%
CCC(=O)NC(=S)Nc1cccc(Cl)c1N1CCCCC1 | – | inactive: -23.8%
Cc1cccc(N2C(=O)c3cccc4c(N(C)CCO)ccc(c34)C2=O)c1 | inconclusive: 5.62 µM [inhibitor, single point] | –
CC(=O)c1cccc(NC(=O)CNC(=O)c2sc3ccccc3c2Cl)c1 | inconclusive: 22.4 µM [inhibitor, partial curve, poor fit] | –
CN(CC(O)CON=C1c2ccccc2-c2ccccc21)S(=O)(=O)c1ccc(Br)cc1 (configuration not stated) | inconclusive: 10 µM [inhibitor, partial curve, poor fit] | –
CC(C)c1ccc(CNC(=O)C(=O)NCC2CCCO2)cc1 (configuration not stated) | inconclusive: 8.91 µM [inhibitor, partial curve] | –
CCS(=O)(=O)c1ccc2oc(Nc3cccc(OC)c3)nc2c1 | inconclusive: 12.6 µM [inhibitor, partial curve, poor fit] | –
Cc1cccc(C(=O)NC2CCN(C(=O)NCc3ccccc3)CC2)c1 | inconclusive: 35.5 µM [inhibitor, single point] | –
CCOc1ccccc1NC(=O)N1CCN(S(=O)(=O)c2ccc3c(ccn3C)c2)CC1 | – | inactive: 6.13%
CCC(C)Nc1nc(-c2c[nH]c3ccccc23)cs1 (configuration not stated) | inconclusive: 10 µM [inhibitor, partial curve, poor fit] | –
